The exact form of at least one protein or probe is not confirmed. Tags and fusion partners may be left off the protein sequences shown. The direction of at least one scale is not stated here.
Molecular target: T1, hPolεCD (DNA polymerase ε catalytic domain, exo-) D275N,E277Q,del185-209 (Homo sapiens) (UniProt Q07864)
T1 sequence (looked up): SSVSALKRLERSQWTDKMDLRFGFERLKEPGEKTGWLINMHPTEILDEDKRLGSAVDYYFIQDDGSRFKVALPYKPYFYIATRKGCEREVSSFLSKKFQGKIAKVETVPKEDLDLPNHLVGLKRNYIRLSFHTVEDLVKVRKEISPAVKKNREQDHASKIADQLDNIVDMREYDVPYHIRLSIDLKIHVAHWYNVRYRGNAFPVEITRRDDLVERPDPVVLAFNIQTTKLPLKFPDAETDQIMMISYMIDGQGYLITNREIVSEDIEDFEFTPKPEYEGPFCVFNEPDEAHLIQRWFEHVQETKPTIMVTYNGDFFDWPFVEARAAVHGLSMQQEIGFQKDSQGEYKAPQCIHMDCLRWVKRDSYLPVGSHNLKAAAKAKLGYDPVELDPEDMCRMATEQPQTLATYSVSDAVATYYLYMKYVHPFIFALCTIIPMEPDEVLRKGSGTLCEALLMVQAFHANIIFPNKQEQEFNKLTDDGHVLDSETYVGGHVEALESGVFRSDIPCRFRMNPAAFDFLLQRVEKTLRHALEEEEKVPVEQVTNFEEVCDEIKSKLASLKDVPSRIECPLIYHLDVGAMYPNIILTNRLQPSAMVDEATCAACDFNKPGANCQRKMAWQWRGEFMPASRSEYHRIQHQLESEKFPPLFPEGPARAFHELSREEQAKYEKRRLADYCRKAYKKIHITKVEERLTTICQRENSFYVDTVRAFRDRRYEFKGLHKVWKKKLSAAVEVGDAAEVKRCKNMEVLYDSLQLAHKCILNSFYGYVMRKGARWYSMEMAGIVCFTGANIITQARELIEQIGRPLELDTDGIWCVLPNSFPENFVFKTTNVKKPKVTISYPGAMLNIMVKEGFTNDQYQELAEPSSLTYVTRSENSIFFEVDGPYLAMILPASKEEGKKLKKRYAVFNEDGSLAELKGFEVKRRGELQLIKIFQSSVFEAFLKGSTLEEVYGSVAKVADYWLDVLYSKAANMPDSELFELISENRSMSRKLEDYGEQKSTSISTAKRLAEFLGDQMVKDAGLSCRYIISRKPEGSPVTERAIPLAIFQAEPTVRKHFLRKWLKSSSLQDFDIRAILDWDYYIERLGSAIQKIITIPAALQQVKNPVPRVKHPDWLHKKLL
Assay: BLI
Settings: BLI (Octet K2): 30 mM Tris-Hepes pH 7.8, 100-150 mM NaCl, 2 mM TCEP, 0.002% Tween 20, 23 °C, recombinant protein, residues 27-1172, label: 5' BiotinTEG on template; for Kd: 50 µM dTTP, 5 mM Mg2+

Sequence: AATACATAAGCGCTCCAGGCAAT / GCCTGGAGCGC [D10-R1 template:primer]
- Kd (100 mM NaCl, primer nt 1-10 DNA, nt 11 3'-deoxy-C (2'-OH)): 225 nM

Sequence: AATACATAAGCGCTCCAGGCAAT / GCCTGGAGCGC [D11 template:primer]
- Kd (150 mM NaCl, primer 3'-terminal 2',3'-dideoxy-C): 3790 nM

Sequence: AATACATAAGCGCTCCAGGCAAT / GCCUGGAGCGC [R6-D5 template:primer]
- Kd (100 mM NaCl, primer nt 1-6 RNA, nt 7-11 DNA, 3' ddC): 218 nM

Sequence: AATACATAAGCGCTCCAGGCAAT / GCCUGGAGCGC [R8-D3 template:primer]
- Kd (100 mM NaCl, primer nt 1-8 RNA, nt 9-11 DNA, 3' ddC): 439 nM

Sequence: AATACATAAGCGCTCCAGGCAAT / GCCUGGAGCGC [R10-D1 template:primer]
- binding signal (fold KD increase vs no additive) (50 µM dTTP only, primer nt 1-10 RNA, nt 11 2',3'-dideoxy-C): 1.8
- binding signal (fold KD increase vs no additive) (5 mM Mg2+ only, primer nt 1-10 RNA, nt 11 2',3'-dideoxy-C): 7.5
- Kd (100 mM NaCl, primer nt 1-10 RNA, nt 11 2',3'-dideoxy-C): 424 nM

From publication PMC9205888, “Efficient discrimination against RNA-containing primers by human DNA polymerase ε”
